Paper doi:10.1101/2023.08.08.552343
These are yes or no findings as the source states them, for the method shown. For some of these results: In cells and extracts the contact can be indirect. Some results given as binding are weak or reduced against the parent protein; the word gives no strength. For some of these results: Sequences can lack the tags named with a protein. One block for each molecule: values may come before it.

Amino acid sequences for entries named in this document (tags omitted). Residues count along the entry.
UniProt Q9NXA8, residues 37-310: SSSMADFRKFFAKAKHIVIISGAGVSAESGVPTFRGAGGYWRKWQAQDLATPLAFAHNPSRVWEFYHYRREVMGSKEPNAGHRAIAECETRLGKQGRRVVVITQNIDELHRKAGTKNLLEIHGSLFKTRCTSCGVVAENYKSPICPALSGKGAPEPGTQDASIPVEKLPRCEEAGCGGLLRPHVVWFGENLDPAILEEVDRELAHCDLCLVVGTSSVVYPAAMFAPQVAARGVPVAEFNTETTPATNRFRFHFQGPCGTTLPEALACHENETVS
UniProt P31751: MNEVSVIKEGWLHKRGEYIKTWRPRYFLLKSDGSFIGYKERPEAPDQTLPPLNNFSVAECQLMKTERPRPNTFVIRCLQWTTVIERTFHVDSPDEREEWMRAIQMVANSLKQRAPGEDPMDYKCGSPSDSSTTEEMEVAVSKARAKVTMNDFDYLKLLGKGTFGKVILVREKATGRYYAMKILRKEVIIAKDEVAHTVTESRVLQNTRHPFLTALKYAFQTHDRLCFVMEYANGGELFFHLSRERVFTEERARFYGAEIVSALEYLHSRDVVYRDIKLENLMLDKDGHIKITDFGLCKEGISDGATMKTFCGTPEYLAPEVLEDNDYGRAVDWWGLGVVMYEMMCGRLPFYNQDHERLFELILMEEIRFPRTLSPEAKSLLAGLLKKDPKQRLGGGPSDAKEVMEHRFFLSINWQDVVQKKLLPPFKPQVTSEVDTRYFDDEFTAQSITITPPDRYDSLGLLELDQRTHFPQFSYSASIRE

Columns and labels:
[1] = biological target: Sirtuin 5 (SIRT5) on the HuProt v3.1 human proteome array (human) (UniProt Q9NXA8); experiment: peptide or protein array
[2] = biological target: T1, Synaptotagmin Like 1 (SYTL1) on the HuProt v3.1 human proteome array (human) (UniProt Q8IYJ3); experiment: peptide or protein array
T1 sequence: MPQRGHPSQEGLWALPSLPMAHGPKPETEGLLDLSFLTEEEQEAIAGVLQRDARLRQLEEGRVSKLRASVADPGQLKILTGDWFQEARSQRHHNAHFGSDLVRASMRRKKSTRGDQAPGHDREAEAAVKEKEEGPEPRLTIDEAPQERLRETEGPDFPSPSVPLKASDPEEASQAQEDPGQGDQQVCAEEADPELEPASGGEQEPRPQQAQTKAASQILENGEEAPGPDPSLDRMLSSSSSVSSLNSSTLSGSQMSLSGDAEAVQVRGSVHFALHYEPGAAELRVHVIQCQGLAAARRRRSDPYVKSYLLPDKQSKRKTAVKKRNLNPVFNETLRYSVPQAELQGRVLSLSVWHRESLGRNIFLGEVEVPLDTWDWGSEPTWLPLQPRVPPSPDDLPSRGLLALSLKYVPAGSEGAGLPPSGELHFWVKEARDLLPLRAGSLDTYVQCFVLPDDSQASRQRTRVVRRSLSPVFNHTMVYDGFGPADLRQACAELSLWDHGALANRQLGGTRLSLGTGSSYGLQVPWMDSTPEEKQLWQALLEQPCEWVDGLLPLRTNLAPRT

EGFP-AKT2 (human) = EGFP-AKT2 (human) (UniProt P31751); experiment: co-IP

- binding [1]: binds
- binding [2]: binds
Molecule: recombinant AKT2 (from UniProt P31751 1-481) (enzyme)

- binding (EGFP-AKT2 (human)): binds
B1: Synaptotagmin Like 1 (SYTL1) found with AKT2 in the pulldown (protein, UniProt Q8IYJ3 1-562)
chain: T1 sequence

- binding (EGFP-AKT2 (human)): binds
B2: synaptosome-associated protein 23 (SNAP23) (protein, UniProt O00161 1-211)
chain: MDNLSSEEIQQRAHQITDESLESTRRILGLAIESQDAGIKTITMLDEQKEQLNRIEEGLDQINKDMRETEKTLTELNKCCGLCVCPCNRTKNFESGKAYKTTWGDGGENSPCNVVSKQPGPVTNGQLQQPTTGAASGGYIKRITNDAREDEMEENLTQVGSILGNLKDMALNIGNEIDAQNPQIKRITDKADTNRDRIDIANARAKKLIDS
